PubChem BioAssay AID1259308, NCATS | 2017
The deposit covers about 59,000 reagents; below is an unselected part. About 1,510 of them (2.6%) count as active. 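Calls use total luciferase alone and ignore viability, so some active siRNAs may act by altering cell number.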 Reagents against one gene are numbered here.

Assay: 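Knock-downs that increase output of a recombinant reporter protein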 (primary screen)
System: human HEK293 embryonic kidney cells stably expressing firefly luciferase (HEK-CMV-Luc2-Hygro)
Reagents: single siRNA against human genes, 0.8 pmol siRNA per well
Time to read-out: 72 h
Measured: 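Reporter luminescence and viable-cell signal on separate replicate plates, given as percent of non-targeting control and median/MAD z-scores, plus per-cell luciferase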
Reading the numbers: total luciferase, z-score and total luciferase, % of control: higher = more reporter protein produced; luciferase per cell, z-score: higher = more reporter output per viable cell; viable cells, % of control: higher = more viable cells
Rule for the call: 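An siRNA counts as active if its total luciferase robust z-score exceeds 3; genes with two or more such siRNAs out of three were retested with fresh siRNAs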
Calls: active = raised luciferase; inactive = no rise

The opening 2 entries as a preview:
total luciferase, z-score	total luciferase, % of control	luciferase per cell, z-score	viable cells, % of control	call	gene symbol	reagent
-2.5	32.2	-2.61	71.6	inactive	GAPVD1 (GeneID 26130)	1
-0.187	78.2	-0.741	106	inactive	GAPVD1 (GeneID 26130)	2

The listing, from the first entry:
total luciferase, z-score	total luciferase, % of control	luciferase per cell, z-score	viable cells, % of control	call	gene symbol	reagent
-2.5	32.2	-2.61	71.6	inactive	GAPVD1 (GeneID 26130)	1
-0.187	78.2	-0.741	106	inactive	GAPVD1 (GeneID 26130)	2
0.12	84.3	-0.243	100	inactive	GAPVD1 (GeneID 26130)	3
1.11	104	1.13	86.2	inactive	TPPP (GeneID 11076)	1
-0.0249	81.4	-0.316	98.9	inactive	TPPP (GeneID 11076)	2
0.0633	83.1	-0.171	97.2	inactive	TPPP (GeneID 11076)	3
-0.739	67.2	-1.16	102	inactive	FOXI2 (GeneID 399823)	1
0.96	101	0.395	102	inactive	FOXI2 (GeneID 399823)	2
1.54	113	0.588	108	inactive	FOXI2 (GeneID 399823)	3
-2.66	28.9	-0.822	40.1	inactive	HMGN1P38 (GeneID 643790)	1
5.63	194	3.5	86.2	active	HMGN1P38 (GeneID 643790)	2
0.77	97.2	0.874	86.3	inactive	HMGN1P38 (GeneID 643790)	3
2.5	132	1.56	97.6	inactive	UBE2D3 (GeneID 7323)	1
0.341	88.7	0.205	93.9	inactive	UBE2D3 (GeneID 7323)	2
0.284	87.5	0.507	85.6	inactive	UBE2D3 (GeneID 7323)	3
-1.14	59.3	-0.813	82.1	inactive	SPCS2 (GeneID 9789)	1
0.508	92	0.309	94.8	inactive	SPCS2 (GeneID 9789)	2
2.72	136	1.94	91.1	inactive	SPCS2 (GeneID 9789)	3
-1.16	58.8	-0.684	78.7	inactive	IGF2BP2 (GeneID 10644)	1
0.0444	82.8	-0.167	96.6	inactive	IGF2BP2 (GeneID 10644)	2
1.51	112	1.9	75.7	inactive	IGF2BP2 (GeneID 10644)	3
-0.88	64.4	-0.345	78.8	inactive	UBTFL5 (GeneID 728231)	1
1.22	106	1.01	90.9	inactive	UBTFL5 (GeneID 728231)	2
0.551	92.9	0.425	92.8	inactive	UBTFL5 (GeneID 728231)	3
0.8	97.8	1.22	79.4	inactive	DGAT1 (GeneID 8694)	1
0.261	87.1	0.0993	94.8	inactive	DGAT1 (GeneID 8694)	2
-0.235	77.2	-0.915	110	inactive	DGAT1 (GeneID 8694)	3
-0.663	68.7	-0.394	85.2	inactive	UCK2 (GeneID 7371)	1
1.63	114	1.03	97.3	inactive	UCK2 (GeneID 7371)	2
0.442	90.7	0.508	88.6	inactive	UCK2 (GeneID 7371)	3
-1.19	58.1	2.1	37.4	inactive	ZNF786 (GeneID 136051)	1
0.775	97.3	0.808	87.9	inactive	ZNF786 (GeneID 136051)	2
-0.584	70.3	-0.889	99.2	inactive	ZNF786 (GeneID 136051)	3
-0.508	71.8	-0.403	89.2	inactive	PRR12 (GeneID 57479)	1
-0.33	75.3	0.319	77.4	inactive	PRR12 (GeneID 57479)	2
2.29	127	1.97	84.6	inactive	PRR12 (GeneID 57479)	3
-0.245	77	-0.242	91.7	inactive	AGAP2 (GeneID 116986)	1
0.236	86.6	-0.606	113	inactive	AGAP2 (GeneID 116986)	2
1.84	118	1.73	84	inactive	AGAP2 (GeneID 116986)	3
1.16	105	0.385	106	inactive	DOCK5 (GeneID 80005)	1
2.77	137	2.01	90.1	inactive	DOCK5 (GeneID 80005)	2
0.127	84.4	-0.291	102	inactive	DOCK5 (GeneID 80005)	3
4.14	164	3.28	77.4	active	CHRND (GeneID 1144)	1
1.17	105	0.768	95.9	inactive	CHRND (GeneID 1144)	2
-0.707	67.8	-0.068	77.2	inactive	CHRND (GeneID 1144)	3
0.668	95.2	0.247	99.7	inactive	STOX2 (GeneID 56977)	1
0.836	98.5	0.363	100	inactive	STOX2 (GeneID 56977)	2
1.62	114	1.26	91.4	inactive	STOX2 (GeneID 56977)	3
-0.45	72.9	-0.416	90.9	inactive	SNAP23 (GeneID 8773)	1
1.28	107	0.643	101	inactive	SNAP23 (GeneID 8773)	2
-1.76	46.8	-1.62	80.2	inactive	SNAP23 (GeneID 8773)	3
0.626	94.3	0.816	85	inactive	TAF10 (GeneID 6881)	1
0.934	100	1.23	81.3	inactive	TAF10 (GeneID 6881)	2
0.198	85.8	0.929	75.1	inactive	TAF10 (GeneID 6881)	3
-0.599	70	-1.08	104	inactive	AADAC (GeneID 13)	1
0.89	99.6	0.225	105	inactive	AADAC (GeneID 13)	2
0.579	93.4	0.255	97.6	inactive	AADAC (GeneID 13)	3
